This is an account of results in the supplement of paper PMC7858590.

± gives the standard deviation of the averaged measurements. In all, about 3,800 compounds were measured (“cell shape (eccentricity) Z-score vs DMSO control”: median about 1.1, lowest 2% from about -4.7 on). This is one part of the list.

This test deals with human monocyte-derived macrophages (M0). The test is described as follows: cell shape (eccentricity) Z-score vs DMSO control; higher = more elongated, M2-like morphology. The note with it: 20 µM; 24 h; macrophage state: M0 (M-CSF).
As for `NC(=O)N1C(=O)C(C(=O)c2cccs2)c2cc(Cl)ccc21` (stereo not given), the “cell shape (Z-score)” value is -0.469.

`Cc1c(C2CCN(CCc3ccccc3)CC2)noc1-c1ccc(Cl)cc1`: the “cell shape (Z-score)” value was -0.315.

Regarding `O=C1[C@H](Cc2ccc(O)cc2)N2C(=O)CCN(C(=O)NCc3ccccc3)[C@H]2CN1Cc1cccc2ccccc12`, the “cell shape (Z-score)” value is 0.847.

For the compound `C[C@@H]1O[C@@H](O[C@@H]2CC[C@@]3(C)C(CC[C@]4(C)C3CC=C3[C@@H]5CC(C)(C)CC[C@]5(C(=O)O[C@@H]5O[C@H](CO)[C@@H](O)[C@H](O)[C@H]5O)CC[C@]34C)[C@]2(C)CO)[C@H](O)[C@H](O[C@@H]2OC[C@@H](O)[C@H](O)[C@H]2O)[C@H]1O` (stereo not given in full), the “cell shape (Z-score)” value amounted to 0.722.

Consider `C[C@H]1C[C@@H]2[C@H]([C@@H](O)C[C@@]3(C)[C@H]2CC[C@]3(O)C(=O)CO)[C@@]2(C)C=CC(=O)C=C12`, for which the “cell shape (Z-score)” value is 3.78.

On to `CC1(C)CC[C@]2(C(=O)O[C@@H]3O[C@H](CO)[C@@H](O)[C@H](O)[C@H]3O)CC[C@]3(C)C(=CCC4[C@@]5(C)C[C@@H](O)[C@H](O)[C@@](C)(COC(=O)c6cc(O)c(O)c(O)c6)C5[C@H](O)C[C@]43C)[C@@H]2C1` (stereo not given in full), for which the “cell shape (Z-score)” value was -0.21.

Regarding `N=C(NCCCCCCNC(=N)NC(=N)Nc1ccc(Cl)cc1)NC(=N)Nc1ccc(Cl)cc1`, the “cell shape (Z-score)” value was -6.88.

Take `COc1cc(/C=C/CO[C@@H]2O[C@H](CO)[C@@H](O)[C@H](O)[C@H]2O)ccc1O`: the “cell shape (Z-score)” value was 1.26.

On to `CN(C)C1C(=O)C(C(N)=O)C(=O)C2(O)C(=O)C3C(=O)c4c(O)ccc(Cl)c4C(O)C3CC12` (stereo not given), for which the “cell shape (Z-score)” value was -2.82.

As for `CO[C@H]1C[C@H](O[C@H]2[C@H](C)[C@@H](O[C@@H]3O[C@H](C)C[C@H](N(C)C)[C@@H]3OC(C)=O)[C@@H](C)C[C@]3(CO3)C(=O)[C@H](C)[C@@H](OC(C)=O)[C@@H](C)[C@@H](C)OC(=O)[C@@H]2C)O[C@@H](C)[C@@H]1OC(C)=O`, the “cell shape (Z-score)” value was found to be 3.12.

Consider `C[C@H](CO)N1C[C@H](C)[C@H](CN(C)C(=O)NC2CCCCC2)Oc2c(NS(=O)(=O)c3ccc(F)cc3)cccc2C1=O`, for which the “cell shape (Z-score)” value was 1.99.

Consider `COc1ccc(C(=O)NCCc2ccccc2)cc1Cl`, for which the “cell shape (Z-score)” value is 2.08.

Regarding `C=C[C@@]1(C)C[C@@]2(OC[C@@]3(C)O[C@@H]23)Oc2c1c(=O)oc1cccc(C)c21`, the “cell shape (Z-score)” value was -0.147 ± 1.4.

Consider `Cc1cc2cc3c(C)cc(=O)oc3c(C)c2o1`, for which the “cell shape (Z-score)” value was -4.76.

Turning to `Nc1nc(OCc2cc(Br)cs2)c2[nH]cnc2n1`, the “cell shape (Z-score)” value came out at 4.54.

For the compound `Clc1ccc2nsnc2c1NC1=NCCN1`, the “cell shape (Z-score)” value is 0.611.

`Cc1c(C)c2c(c(C)c1O)CCC(C)(C(=O)O)O2` (stereo not given): the “cell shape (Z-score)” value came out at 3.07.

As to `O=C1c2ccc(O)cc2C(=O)c2ccc(O)cc21`, the “cell shape (Z-score)” value is -2.6.

As for `CC(CCc1ccccc1)NCC(O)c1ccc(O)c(C(N)=O)c1` (stereo not given), the “cell shape (Z-score)” value worked out at 1.37.

For the compound `C[C@H]1CN([C@@H](C)CO)C(=O)Cc2cc(NC(=O)NC3CCCCC3)ccc2O[C@H]1CN(C)C(=O)Nc1cccc2ccccc12`, the “cell shape (Z-score)” value is 0.901.
